Reference: the supplement of paper PMC5949888
Most values lie at the floor of the assay. Slopes are relative: functional sequences can read slightly below zero.

Test system: Saccharomyces cerevisiae PS128 hsf1 delta, HSF1(1-493) fusion
Assay: growth estimate (transactivation domain function in HSF1 fusion, heat-shock survival) (a.u. (slope of normalised read count over time)); higher = stronger growth at 37°C, i.e. more transactivation activity
Settings: library: random library

Q: Which growth estimate does the source give for LFLSGLLVFQE here?
A: < -0.25

Q: Which growth estimate does the source give for WHGNRPAQ here?
A: < -0.25

Q: LLDTCRIHKLRGI was tested. Which growth estimate did it give?
A: < -0.25

Q: How did the growth estimate turn out when CWSS was run?
A: < -0.25

Q: For PLPQHVG, which growth estimate is on record?
A: < -0.25

Q: Which growth estimate does the source give for GGTAFTMTQMRAIEPKSRMY here?
A: < -0.25

Q: Which growth estimate does the source give for TVFTYPGLQTSESSLFEMSC here?
A: < -0.25

Q: With AVIDASINTPSPLSRGRDRP as the substance, how does the growth estimate read?
A: < -0.25

Q: How did the growth estimate turn out when LLSRRAGPRSSNDS was run?
A: < -0.25

Q: With CGRGHTG as the substance, how does the growth estimate read?
A: < -0.25

Q: With VNLNLPRPCHRLLHCQLDAC as the substance, how does the growth estimate read?
A: < -0.25

Q: With AGQGLPGFVSN as the substance, how does the growth estimate read?
A: < -0.25

Q: For LGELNAKFSAAFQTAFIESC, which growth estimate is on record?
A: < -0.25

Q: How did the growth estimate turn out when DPTPALGFVLVWGRWLASHA was run?
A: < -0.25

Q: SVCLLRLLVSTCDCLLGPLH was tested. Which growth estimate did it give?
A: < -0.25

Q: How did the growth estimate turn out when SETTYSAERTQF was run?
A: < -0.25

Q: For YGCAARVRLFA, which growth estimate is on record?
A: < -0.25

Q: For TKNMTCHCLLILCGKWDPTS, which growth estimate is on record?
A: < -0.25

Q: YGLVLRTQLRHQT was tested. Which growth estimate did it give?
A: < -0.25

Q: GWELVSYIA was tested. Which growth estimate did it give?
A: < -0.25

Q: EAFGWNAVQ was tested. Which growth estimate did it give?
A: < -0.25

Q: For HIGLVLQELCPLGSSTKYMK, which growth estimate is on record?
A: < -0.25

Q: Which growth estimate does the source give for SPCAAL here?
A: < -0.25

Q: For QQGSVSVAGGTQLRRIGQRS, which growth estimate is on record?
A: < -0.25

Q: For YYAVVLTRSCSR, which growth estimate is on record?
A: < -0.25

Q: GTGKCFFIGTDCETF was tested. Which growth estimate did it give?
A: < -0.25

Q: How did the growth estimate turn out when STSNEFVVIGREYWFALVRP was run?
A: -0.194

Q: With GNV as the substance, how does the growth estimate read?
A: < -0.25

Q: YLEEGFT was tested. Which growth estimate did it give?
A: < -0.25

Q: TQQFGNPSAGCHLAGQWKTI was tested. Which growth estimate did it give?
A: < -0.25

Q: MHIRRDPFLCRSIRSGDRPR was tested. Which growth estimate did it give?
A: < -0.25

Q: KHPVRLPTDQSVQVWGRRPA was tested. Which growth estimate did it give?
A: < -0.25

Q: KRLRSDFELMVGPQRDHWP was tested. Which growth estimate did it give?
A: < -0.25

Q: With CIRT as the substance, how does the growth estimate read?
A: < -0.25

Q: With KCGDLECAERYRVFLRSRLP as the substance, how does the growth estimate read?
A: < -0.25

Q: How did the growth estimate turn out when VLGTGCPSTLISRTLLPHRR was run?
A: < -0.25

Q: VFLARALRYRTPVLDNASAP was tested. Which growth estimate did it give?
A: < -0.25

Q: For LWLRQRSVGRSWQIRVGKPS, which growth estimate is on record?
A: < -0.25

Q: With LGDGKSDRRYSMTEEPVSTV as the substance, how does the growth estimate read?
A: < -0.25

Q: How did the growth estimate turn out when LSTYIGNRSGSADLPLRANP was run?
A: < -0.25

Q: For MCAYGLTRRTSVEVRSVSPA, which growth estimate is on record?
A: < -0.25

Q: How did the growth estimate turn out when VRAVRAFMVRPIVRRTSLCS was run?
A: < -0.25

Q: How did the growth estimate turn out when AESQRPLQRSECLS was run?
A: < -0.25

Q: For VDRLAICLASSMFVLNSLRG, which growth estimate is on record?
A: < -0.25

Q: How did the growth estimate turn out when LNNRGSCTMILIGKPR was run?
A: < -0.25

Q: Which growth estimate does the source give for SSLMNKVSGPL here?
A: < -0.25

Q: How did the growth estimate turn out when QRKCDLLALEQCTGQS was run?
A: < -0.25

Q: For WTIALATARGGLLPARTRDT, which growth estimate is on record?
A: < -0.25

Q: For IYPSLCSTCQGLSDSGTNTK, which growth estimate is on record?
A: < -0.25

Q: How did the growth estimate turn out when LDPSRSI was run?
A: < -0.25

Q: For QGEPSQATTRIRPGHSDASL, which growth estimate is on record?
A: < -0.25

Q: How did the growth estimate turn out when WRKLGIHDS was run?
A: < -0.25

Q: Which growth estimate does the source give for QSVVGGVAGMPVQVLHASQT here?
A: < -0.25

Q: With HTDGPYPTRW as the substance, how does the growth estimate read?
A: < -0.25

Q: Which growth estimate does the source give for VCILRCGGPTSYSF here?
A: < -0.25

Q: With WGSGHHSVQSVPASGNLPTT as the substance, how does the growth estimate read?
A: < -0.25

Q: How did the growth estimate turn out when SLQHLSERNVIKW was run?
A: < -0.25

Q: For GWAVWNKNRSAGRAGSSYDM, which growth estimate is on record?
A: < -0.25

Q: SHTPA was tested. Which growth estimate did it give?
A: < -0.25

Q: Which growth estimate does the source give for VGFGTMESSTLLINVILPHR here?
A: < -0.25

Q: With NGVADNEILKYCDWDLRRSR as the substance, how does the growth estimate read?
A: < -0.25

Q: With KCYRGIGLRGLNLRSTQPSA as the substance, how does the growth estimate read?
A: < -0.25

Q: For HLRPGTQGVGANFQADRRRT, which growth estimate is on record?
A: < -0.25

Q: How did the growth estimate turn out when VNNADIIGRECDSTGQGSTR was run?
A: < -0.25

Q: TLTSSHRTIIICRQAIIQDS was tested. Which growth estimate did it give?
A: < -0.25

Q: With RYRLV as the substance, how does the growth estimate read?
A: < -0.25

Q: How did the growth estimate turn out when GCSALKTNPG was run?
A: < -0.25

Q: Which growth estimate does the source give for YEIGCRGVPGRVLRYYDGAG here?
A: < -0.25

Q: How did the growth estimate turn out when PADYLISTLPILRAS was run?
A: < -0.25

Q: How did the growth estimate turn out when AGEWRPLVSNRSPTGVGGLE was run?
A: < -0.25

Q: Which growth estimate does the source give for CVGALGL here?
A: < -0.25

Q: How did the growth estimate turn out when PRAGSAPKLVRLCSSFSRGV was run?
A: < -0.25

Q: How did the growth estimate turn out when PFMDGVDALTERDNPHTGHP was run?
A: < -0.25

Q: For SLSSFRRHIMSECGREPVTL, which growth estimate is on record?
A: < -0.25

Q: For RSSSSVPKRRHKRLSAENLS, which growth estimate is on record?
A: < -0.25

Q: NLLSNGSAER was tested. Which growth estimate did it give?
A: < -0.25

Q: With CLRYCRE as the substance, how does the growth estimate read?
A: < -0.25

Q: With LNSTGEAGIDHVSWVY as the substance, how does the growth estimate read?
A: < -0.25

Q: How did the growth estimate turn out when NVLPEPPPYGLQLGHMC was run?
A: < -0.25

Q: How did the growth estimate turn out when IRKHL was run?
A: < -0.25

Q: How did the growth estimate turn out when CAVKERRPLS was run?
A: < -0.25

Q: For AEFYRVMCRIYTGAGRVHHF, which growth estimate is on record?
A: < -0.25

Q: Which growth estimate does the source give for SFTEFVRVPRVKETAEGS here?
A: < -0.25

Q: Which growth estimate does the source give for HNPPAQTV here?
A: < -0.25

Q: With ACLVARILEGGPLLMRAQ as the substance, how does the growth estimate read?
A: < -0.25

Q: For TCEWCRLAPATDILIRSAAR, which growth estimate is on record?
A: < -0.25

Q: Which growth estimate does the source give for IRC here?
A: < -0.25

Q: With QHDTSSREQEFRPFRFSGGR as the substance, how does the growth estimate read?
A: < -0.25

Q: For LRLYFPNL, which growth estimate is on record?
A: < -0.25

Q: How did the growth estimate turn out when RYANEAGVCRPLHPTSRTHL was run?
A: < -0.25

Q: With VDGWRAWTLEAGWDWIGQDH as the substance, how does the growth estimate read?
A: 1.37

Q: With FSVIIDHKQNPLLASGGPQQ as the substance, how does the growth estimate read?
A: < -0.25

Q: QRSLC was tested. Which growth estimate did it give?
A: < -0.25

Q: Which growth estimate does the source give for GEVICIKGSDSSSVSRRFCP here?
A: < -0.25

Q: With RCGLRSIETPSVKRSVRTIR as the substance, how does the growth estimate read?
A: < -0.25

Q: How did the growth estimate turn out when WRMGQVLVTAVRGFLCNKAD was run?
A: < -0.25

Q: FDEKYIRVCTSRDYLLARPS was tested. Which growth estimate did it give?
A: < -0.25

Q: For RLLPNRSILNPRPELNTSKR, which growth estimate is on record?
A: < -0.25

Q: For TGIDIKTSSQRTCVFAAWLA, which growth estimate is on record?
A: < -0.25

Q: RHCLSLRRSSVHRPLDCSAC was tested. Which growth estimate did it give?
A: < -0.25

Q: With PPVLMNPPRWL as the substance, how does the growth estimate read?
A: < -0.25

Q: For SDCDRPARIDEV, which growth estimate is on record?
A: < -0.25

Q: With STMPSASQTGARILNVSADP as the substance, how does the growth estimate read?
A: < -0.25

Q: CQVLYKDS was tested. Which growth estimate did it give?
A: < -0.25

Q: For RANFRNQDGPLWSRSSLVPV, which growth estimate is on record?
A: < -0.25

Q: How did the growth estimate turn out when PNGLKVYSKSSP was run?
A: < -0.25

Q: ELKARSYFPIYVDFLGRCVH was tested. Which growth estimate did it give?
A: < -0.25

Q: ITGWTDDRADLNGSGTVSNP was tested. Which growth estimate did it give?
A: < -0.25

Q: How did the growth estimate turn out when FRASTYLRVYRGSFS was run?
A: < -0.25

Q: For CRRITSRCRI, which growth estimate is on record?
A: -0.246

Q: How did the growth estimate turn out when TSAGVLRIVRPKVSFYKGNE was run?
A: < -0.25

Q: With LNRTMSWLVDTIRPFRN as the substance, how does the growth estimate read?
A: < -0.25

Q: For WHNPWEQRSARECSFWGEGV, which growth estimate is on record?
A: -0.194

Q: With TRASVDEVAKHRSKSSGPPA as the substance, how does the growth estimate read?
A: < -0.25

Q: VVQKTSETGLLRNGKREQHT was tested. Which growth estimate did it give?
A: -0.246

Q: NVISVPGLRWACIPLLKGVE was tested. Which growth estimate did it give?
A: < -0.25

Q: For DRVHIYCRCHPR, which growth estimate is on record?
A: < -0.25

Q: For SQDSLLSVQSVQSVGVLCRI, which growth estimate is on record?
A: < -0.25

Q: For RTRSCILYRLSPLKGTWSVS, which growth estimate is on record?
A: < -0.25

Q: How did the growth estimate turn out when SLP was run?
A: < -0.25

Q: Which growth estimate does the source give for WNVPLSCH here?
A: < -0.25

Q: With GRVT as the substance, how does the growth estimate read?
A: < -0.25

Q: Which growth estimate does the source give for LTHHVVG here?
A: < -0.25

Q: Which growth estimate does the source give for RLGLSGGTLCTNLHRVTRPA here?
A: < -0.25

Q: KKRACRDFRIHISEV was tested. Which growth estimate did it give?
A: < -0.25

Q: With VQRRYKLVGSRLSPLILALK as the substance, how does the growth estimate read?
A: < -0.25

Q: Which growth estimate does the source give for RGC here?
A: < -0.25

Q: For SAVDH, which growth estimate is on record?
A: < -0.25

Q: For RLSS, which growth estimate is on record?
A: -0.243

Q: Which growth estimate does the source give for RRGSEACGTLPD here?
A: < -0.25

Q: How did the growth estimate turn out when AASWESLMCFAHLTRRKASR was run?
A: < -0.25

Q: CQPSWTSMRDVIRRARFLPV was tested. Which growth estimate did it give?
A: < -0.25

Q: How did the growth estimate turn out when CARSW was run?
A: < -0.25

Q: With WCWSR as the substance, how does the growth estimate read?
A: < -0.25

Q: How did the growth estimate turn out when KGCVRRPSTGSCVIHESIGA was run?
A: < -0.25

Q: With LVALDSSNRANHQGGSFCCR as the substance, how does the growth estimate read?
A: < -0.25

Q: With FRLTGTYSSTSKDH as the substance, how does the growth estimate read?
A: < -0.25

Q: YDGLPAQPSKYIYPKRSL was tested. Which growth estimate did it give?
A: < -0.25

Q: With WVGNT as the substance, how does the growth estimate read?
A: -0.231

Q: With YTADEGP as the substance, how does the growth estimate read?
A: < -0.25

Q: Which growth estimate does the source give for RRMQRGVYS here?
A: < -0.25

Q: With GIEGTVCFVMGRSWSYFGSG as the substance, how does the growth estimate read?
A: < -0.25

Q: How did the growth estimate turn out when CQFTE was run?
A: -0.184
